Data: PMC8141524
No constants are given. Whether binding was seen depends on the method and setting. In cells and extracts the contact can be indirect. Some binding calls cover weakened binding; strength is not graded here. Sequences can lack the tags named with a protein.

What was measured:
Assay in all cases: pull-down; 293T cells cotransfected with GFP-SANBR and Flag-Strep-tagged SANBR WT or deletion mutants; lysate (20 mM Tris pH 7.5, 150 mM NaCl, 5% glycerol, 0.5% NP40) on MagStrep type 3 XT beads, 2 h 4 °C; immunoblot anti-GFP and anti-Flag
[1] = target: T1, Flag-StrepII-tagged SANBR ΔSANT (lacks amino acids 48-59, helix 3 of the SANT domain) (mouse) (UniProt Q68FF0)
T1 sequence: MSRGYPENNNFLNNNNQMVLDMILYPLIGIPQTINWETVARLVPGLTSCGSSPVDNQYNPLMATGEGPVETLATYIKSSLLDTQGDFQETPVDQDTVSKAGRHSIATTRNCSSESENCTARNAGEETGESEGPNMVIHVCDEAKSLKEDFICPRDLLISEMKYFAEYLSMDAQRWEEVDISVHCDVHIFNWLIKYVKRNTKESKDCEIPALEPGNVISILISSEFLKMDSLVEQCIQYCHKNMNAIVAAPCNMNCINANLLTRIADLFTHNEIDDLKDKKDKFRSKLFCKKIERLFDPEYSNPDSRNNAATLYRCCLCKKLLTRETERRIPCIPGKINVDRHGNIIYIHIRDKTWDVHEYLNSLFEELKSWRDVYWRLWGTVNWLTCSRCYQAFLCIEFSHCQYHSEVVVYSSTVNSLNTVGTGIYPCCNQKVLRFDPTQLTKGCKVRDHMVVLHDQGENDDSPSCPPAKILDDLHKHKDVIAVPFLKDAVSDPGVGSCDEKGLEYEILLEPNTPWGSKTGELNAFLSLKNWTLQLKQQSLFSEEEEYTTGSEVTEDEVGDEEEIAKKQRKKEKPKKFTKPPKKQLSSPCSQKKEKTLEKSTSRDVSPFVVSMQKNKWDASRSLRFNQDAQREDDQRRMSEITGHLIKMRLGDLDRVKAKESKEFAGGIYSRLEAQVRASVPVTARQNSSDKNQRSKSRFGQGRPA

[2] = target: T2, Flag-StrepII-tagged SANBR ΔBTB (lacks amino acids 147-255) (mouse) (UniProt Q68FF0)
T2 sequence: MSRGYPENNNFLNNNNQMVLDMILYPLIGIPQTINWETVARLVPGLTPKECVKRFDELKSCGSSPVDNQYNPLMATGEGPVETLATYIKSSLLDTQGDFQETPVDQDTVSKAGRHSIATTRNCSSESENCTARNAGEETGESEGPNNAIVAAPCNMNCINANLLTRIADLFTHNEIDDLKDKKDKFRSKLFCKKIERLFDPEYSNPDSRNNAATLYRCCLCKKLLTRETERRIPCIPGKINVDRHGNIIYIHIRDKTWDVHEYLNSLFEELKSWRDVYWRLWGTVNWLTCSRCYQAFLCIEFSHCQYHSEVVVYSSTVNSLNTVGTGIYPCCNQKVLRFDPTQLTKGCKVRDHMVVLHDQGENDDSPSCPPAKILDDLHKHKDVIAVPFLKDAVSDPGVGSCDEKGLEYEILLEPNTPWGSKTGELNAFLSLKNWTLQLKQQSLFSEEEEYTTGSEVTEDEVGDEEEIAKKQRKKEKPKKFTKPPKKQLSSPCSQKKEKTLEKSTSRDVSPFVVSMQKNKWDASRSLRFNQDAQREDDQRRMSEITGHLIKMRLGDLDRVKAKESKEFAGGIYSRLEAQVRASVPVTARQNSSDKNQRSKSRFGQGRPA

[3] = target: T3, Full-length Flag-StrepII-tagged wild-type SANBR (mouse) (UniProt Q68FF0)
T3 sequence: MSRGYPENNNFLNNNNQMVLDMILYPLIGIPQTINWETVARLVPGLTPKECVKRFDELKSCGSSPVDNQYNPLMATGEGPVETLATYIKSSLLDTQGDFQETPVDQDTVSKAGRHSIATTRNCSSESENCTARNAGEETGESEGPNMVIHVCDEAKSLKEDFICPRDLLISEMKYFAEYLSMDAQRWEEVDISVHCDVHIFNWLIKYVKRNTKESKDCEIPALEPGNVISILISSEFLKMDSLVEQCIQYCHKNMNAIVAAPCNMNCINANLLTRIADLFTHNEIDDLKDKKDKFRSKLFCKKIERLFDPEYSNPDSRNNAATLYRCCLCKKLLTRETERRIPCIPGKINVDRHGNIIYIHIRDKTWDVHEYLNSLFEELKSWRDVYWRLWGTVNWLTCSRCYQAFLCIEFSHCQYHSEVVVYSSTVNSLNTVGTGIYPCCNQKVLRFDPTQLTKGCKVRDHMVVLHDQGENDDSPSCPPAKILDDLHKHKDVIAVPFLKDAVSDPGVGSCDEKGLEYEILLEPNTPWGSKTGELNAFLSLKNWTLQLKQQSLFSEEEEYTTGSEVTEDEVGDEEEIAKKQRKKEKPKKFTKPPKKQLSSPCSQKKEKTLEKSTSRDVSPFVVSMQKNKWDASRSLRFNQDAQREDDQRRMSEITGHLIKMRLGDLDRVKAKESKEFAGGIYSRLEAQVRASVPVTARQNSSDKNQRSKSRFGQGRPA

- binding [1]: binds
- binding [2]: binds
- binding [3]: binds
B1: N-terminal GFP-tagged WT SANBR (protein, UniProt Q68FF0-1 1-718)
chain: T3 sequence
